# The supplement of paper PMC12889115
# Some of the results follow. Values are raw readings; no control value is given beside them.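 In the initial screen, polymyxin B was used at a concentration that permeabilizes Salmonella's outer membrane but not its inner membrane. Maximum growth was set by DMSO wells with or without polymyxin B. Since plates varied, data were ranked per plate, and compounds giving the lowest OD600 advanced as hits.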
# Tested on: Salmonella enterica serovar Typhimurium SL1344
# Assay: bacterial growth OD600 after 18 h with compound and polymyxin B; higher = more bacterial growth (less inhibition)
# Details: 50 µM, Mueller-Hinton broth
SMILES,bacterial growth OD600 (polymyxin B 1 µg/mL),bacterial growth OD600 (polymyxin B 0.75 µg/mL)
OCCC1CN(Cc2cnn(-c3cccc(Cl)c3)c2)CCN1Cc1ccccc1F (stereo unspecified),0.859,
CN(Cc1nc2cc(Cl)ccc2[nH]1)Cc1c(C(=O)N2CCCCC2)nc2sccn12,0.037,
O=C(NCc1ccccc1F)c1ccc(N2CCC(NCCCOc3cccnc3)CC2)cc1,,0.829
Cc1nc(N2CCCC2C(=O)NC2Cc3ccccc3C2)nc2cc(S(C)(=O)=O)ccc12 (stereo unspecified),,0.731
CCCCc1nc(CN(C)CC2CCN(Cc3ccc(C)o3)CC2)c[nH]1,0.975,
CC1(C)Cc2nc(N3CCOCC3)ncc2C(NC(=O)C2CC2)C1 (stereo unspecified),,0.84
C=C(C)CNCC1(O)CCCN(Cc2ccccc2F)C1=O (stereo unspecified),0.96,
O=C1CC(NC2CCCC2)CN1CCCc1ccccc1 (stereo unspecified),0.838,
Cc1ccc(C(=O)Nc2ccc(N3CCC(NCC4CCCN(C(C)C)C4)CC3)cc2)c(C)c1 (stereo unspecified),,0.823
O=C(NCCCc1ccccn1)c1ccc(N2CCN(C3CCCC3)CC2)nc1,0.982,
Cc1ccccc1C(NC1CCN(c2ccc(NC(=O)c3cnccn3)cc2)CC1)c1ccncc1 (stereo unspecified),,0.019
COc1ccc(CCC2CCCN(Cc3[nH]cnc3C)C2)cc1 (stereo unspecified),,0.843
COCc1ccc(C(=O)N2CCCC(CCc3c(F)cccc3F)C2)o1 (stereo unspecified),,0.139
CSCCC(=O)NCc1cccnc1N1CCCC(O)C1 (stereo unspecified),,0.841
COc1ccc(OCc2cc(C(=O)N3CCCCCC3)n[nH]2)c(Cl)c1,,0.086
COCCC(=O)N1CCC(Oc2ccc(C(=O)NCc3ccc(C)s3)cc2)CC1,0.791,

# An excerpt from above in order of SMILES length, high to low:
SMILES,bacterial growth OD600 (polymyxin B 1 µg/mL),bacterial growth OD600 (polymyxin B 0.75 µg/mL)
OCCC1CN(Cc2cnn(-c3cccc(Cl)c3)c2)CCN1Cc1ccccc1F (stereo unspecified),0.859,
O=C(NCCCc1ccccn1)c1ccc(N2CCN(C3CCCC3)CC2)nc1,0.982,
CC1(C)Cc2nc(N3CCOCC3)ncc2C(NC(=O)C2CC2)C1 (stereo unspecified),,0.84

# Following part.

SMILES,bacterial growth OD600 (polymyxin B 1 µg/mL),bacterial growth OD600 (polymyxin B 0.75 µg/mL)
CCN(Cc1ccncc1)C(=O)c1cc(COc2ccc3ncccc3c2)on1,0.924,
CN(CCc1ccccc1)C1(C(=O)N2CCC(C(N)=O)CC2)Cc2ccccc2C1,0.992,
O=C(Nc1cccc(N2CCC(NCCc3ccco3)CC2)c1)c1cccc(C(F)(F)F)c1,,0.854
CCc1cc(C(=O)NCC2Cc3cc(-c4cc(OC)ccc4OC)cc(Cl)c3O2)n(C)n1 (stereo unspecified),,0.309
Cc1oc(-c2cccc(Cl)c2)nc1CN1CCCCC1c1nccs1 (stereo unspecified),0.728,
COc1ccc(CN2CCN(Cc3cn(C)nc3C)CC2CCO)cc1C (stereo unspecified),0.871,
O=CN1CCCN([C@H]2CN(S(=O)(=O)c3ccccc3)C[C@@H]2O)CC1,0.885,
COC(=O)CCC(=O)N1CCCC(CCc2ccccc2C(F)(F)F)C1 (stereo unspecified),,0.006
CC1CN(CCC(=O)N2CC3CCCC2C3)Cc2cc(Cl)ccc2O1 (stereo unspecified),,0.184
Cc1cc(CNCc2c(C(=O)N(C)CCc3ccccc3)nc3sccn23)nn1C,1.03,
Cc1cccc(C)c1Oc1ncccc1CNC(=O)c1ccc(CN(C)C)o1,1.22,
CCOC(=O)C1(Cc2ccc(OC)cc2)CCN(C(=O)c2cccc(Cl)c2)CC1,0.503,
CN(Cc1cccc2cnccc12)C(=O)c1cn(Cc2cccc(C(F)(F)F)c2)nn1,0.784,
COC(=O)C1CCCCN1C(=O)c1c(OC)cc(=O)n2c1CCN(Cc1cccs1)CC2 (stereo unspecified),,0.787
COc1ccc(C(=O)N(CCO)Cc2ccccc2)cc1OC1CCN(C(C)=O)CC1,0.927,
